This is one part of the list. Repeats in this data set agree poorly, so a single value says little.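 U2OS cells carrying ACE2 were mixed with U2OS cells carrying full-length spike, and fusion was scored by imaging as the share of nuclei showing both cell types' fluorescent markers. A compound counts as an inhibitory hit when it is non-toxic and its fusion z-score falls below -3, meaning more than three standard deviations below the plate's DMSO wells.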
test system: U2OS ACE2 x SARS-CoV-2 spike co-culture; experiment: cell-cell fusion (fraction fused) z-score vs plate DMSO control; higher = more fusion; conditions: 30 µM; 5 h; toxicity class: non-toxic, passed QC

Row | SMILES | cell-cell fusion (z-score)
1 | COc1cc(C=O)cc(OC)c1OC | inactive: 2.26
2 | CSCC[C@H](N)C(=O)O [L-Methionine] | inactive: 1.74
3 | C=C1CCN([C@H](C)[C@](O)(Cn2cncn2)c2ccc(F)cc2F)CC1 [Efinaconazole] | inactive: 2.07
4 | Nc1ccncc1 [4-Aminopyridine] | inactive: 2.02
5 | Nc1ccncc1 | inactive: 2.74
6 | Cc1nc2c([nH]1)c(=O)n(C)c(=O)n2Cc1ccco1 [Furafylline] | inactive: -1.49
7 | CCCN[C@H]1CCc2nc(N)sc2C1.Cl.Cl.O [Pramipexole 2HCl Monohydrate] | inactive: 2.05
8 | CC(=O)[C@H]1CCC2[C@@H]3CCC4C[C@H](O)CC[C@]4(C)C3CC[C@@]21C (some centres not stated) | inactive: 2.2
9 | COc1ccc2cc(CCC(C)=O)ccc2c1 | inactive: 3.38
10 | COc1cc(/C=C(\C#N)C(=O)Nc2nnc(C(F)(F)F)s2)ccc1OCc1ccc(C(F)(F)F)cc1C(F)(F)F | inactive: 1.87
11 | CCCOc1ccccc1-c1nc(=O)c2nn[nH]c2[nH]1 [Zaprinast] | inactive: 1.17
12 | Cl.c1ccc2sc(C3(N4CCCCC4)CCCCC3)cc2c1 [BTCP hydrochloride] | inactive: 3.82
13 | C[C@H](CCC(=O)NCCS(=O)(=O)[O-])[C@H]1CC[C@H]2[C@@H]3[C@H](O)C[C@@H]4C[C@H](O)CC[C@]4(C)[C@H]3C[C@H](O)[C@]12C.O.[Na+] [Taurocholic acid sodium salt hydrate] | inactive: 1.95
14 | CCCCOc1c(C(=O)c2c(F)cc(C)cc2F)cnc2[nH]ncc12 | inactive: 1.42
15 | CNNC.Cl.Cl | inactive: 2.13
16 | C=C[C@H]1C[N@@]2CC[C@H]1C[C@@H]2[C@@H](OC(=O)OCC)c1ccnc2ccc(OC)cc12 | inactive: 2.48
17 | NC1(C(=O)N[C@@H](CCO)c2ccc(Cl)cc2)CCN(c2ncnc3[nH]ccc23)CC1 | inactive: 0.277
18 | NC(=O)N/N=C/c1ccc([N+](=O)[O-])o1 [Furacilin] | inactive: 3.26
19 | CCCCCC(=O)Cc1cc(O)cc(O)c1C(=O)Oc1cc(CC(=O)CCCCC)c(C(=O)O)c(OC)c1 | inactive: 2.55

Quoted at random: two records from the list, in no set order.
Row | SMILES | cell-cell fusion (z-score)
4 | Nc1ccncc1 [4-Aminopyridine] | inactive: 2.02
10 | COc1cc(/C=C(\C#N)C(=O)Nc2nnc(C(F)(F)F)s2)ccc1OCc1ccc(C(F)(F)F)cc1C(F)(F)F | inactive: 1.87

The list goes on.

Row | SMILES | cell-cell fusion (z-score)
20 | Cl.O=C(O)C1=CCNCC1 [Isoguvacine hydrochloride] | inactive: 3.15
21 | Cl.Cl.O=C(O)COCCN1CCN(C(c2ccccc2)c2ccc(Cl)cc2)CC1 (configuration not stated) [Cetirizine dihydrochloride] | inactive: 2.12
22 | CC1=C(/C=C/C(C)=C/C=C/C(C)=C/C(=O)Nc2ccc(O)cc2)C(C)(C)CCC1 [Retinoic acid p-hydroxyanilide] | inactive: 3.32
23 | CCCCNc1cc(C(=O)O)cc(S(N)(=O)=O)c1Oc1ccccc1 | inactive: 2.71
24 | Cc1n[nH]c2ccc(-c3cncc(OC[C@@H](N)Cc4ccccc4)c3)cc12 | inactive: -0.138
25 | O=P([O-])(O)C(O)(Cc1cccnc1)P(=O)(O)O.[Na+] | inactive: 2.08
26 | Cc1[nH]c2ccc(O)cc2c1CCN.O=C(O)/C=C\C(=O)O [2-Methyl-5-hydroxytryptamine maleate] | inactive: 3.59
27 | CC(=O)O[C@H]1C[C@@H](OC(C)=O)C(C)(C)C2CC(=O)[C@]3(C)C(CC[C@@]4(C)[C@H](C(=O)O)OC(=O)C5OC543)[C@]21C (some centres not stated) | inactive: 2.16
28 | O=C(O)CCC(C(=O)O)N1C(=O)c2ccccc2C1=O [L-Glutamic acid, N-phthaloyl-] | inactive: 1.09
29 | Br.COc1ccccc1N1CCN(CCCCN2C(=O)c3ccccc3C2=O)CC1 [NAN-190 hydrobromide] | inactive: 1.5
30 | CC1C/C=C/C=C/C=C/C=C/C(O[C@@H]2O[C@H](C)[C@@H](O)[C@H](N)[C@@H]2O)CC2OC(O)(CC(O)CC3OC3/C=C/C(=O)O1)CC(O)C2C(=O)O.NCCO (some centres not stated) | inactive: 1.02
31 | C=CCNc1ncnc2ccc(Br)cc12 | inactive: 0.853
32 | CC(O)(CC(=O)O)CC(=O)O | inactive: 2.4
33 | O=c1[nH]cc(F)c(=O)[nH]1 [5-Fluorouracil] | inactive: 2.54
34 | O=c1[nH]cc(F)c(=O)[nH]1 | inactive: 2.15
35 | COC[C@H]1OC(=O)c2coc3c2[C@@]1(C)C1=C(C3=O)[C@@H]2CCC(=O)[C@@]2(C)C[C@@H]1OC(C)=O [Wortmannin] | inactive: 0.254
36 | CCn1cc(C(=O)[O-])c(=O)c2ccc(C)nc21.[Na+] [Nalidixic acid sodium] | inactive: 2.15
37 | CCCNC(C)C(=O)Nc1c(C)csc1C(=O)OC.Cl (configuration not stated) [Articaine HCl] | inactive: 3.66

Reference: the supplement of paper PMC8104966
